Measured values: article doi:10.1101/2020.09.15.298083
These are yes or no findings as the source states them, for the method shown. In cells and extracts the contact can be indirect. Some results given as binding are weak or reduced against the parent protein; the word gives no strength.

T1: CEP63 (human (endogenous in U87, 293T/17 and HeLa)) (UniProt Q96MT8)
T1 sequence: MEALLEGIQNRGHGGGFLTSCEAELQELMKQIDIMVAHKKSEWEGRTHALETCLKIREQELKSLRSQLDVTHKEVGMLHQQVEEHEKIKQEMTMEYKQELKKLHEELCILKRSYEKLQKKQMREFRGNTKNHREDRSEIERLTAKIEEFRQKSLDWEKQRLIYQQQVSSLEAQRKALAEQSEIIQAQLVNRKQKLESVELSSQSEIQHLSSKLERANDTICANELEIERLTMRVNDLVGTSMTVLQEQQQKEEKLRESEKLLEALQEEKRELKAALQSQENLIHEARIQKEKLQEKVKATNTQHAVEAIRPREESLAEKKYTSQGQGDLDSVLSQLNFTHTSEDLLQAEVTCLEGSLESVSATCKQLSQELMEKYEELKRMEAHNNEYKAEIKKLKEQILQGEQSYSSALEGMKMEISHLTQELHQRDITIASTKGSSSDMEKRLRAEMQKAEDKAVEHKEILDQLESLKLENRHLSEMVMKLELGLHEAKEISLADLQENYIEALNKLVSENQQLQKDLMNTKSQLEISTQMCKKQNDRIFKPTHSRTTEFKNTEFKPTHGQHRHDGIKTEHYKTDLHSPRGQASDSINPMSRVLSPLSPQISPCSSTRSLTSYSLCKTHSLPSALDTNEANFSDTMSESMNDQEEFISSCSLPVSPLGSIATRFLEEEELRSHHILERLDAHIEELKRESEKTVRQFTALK


Target: T1, CEP63 (human (endogenous in U87, 293T/17 and HeLa))
Experiment: co-IP

binding | Binder
binds | DTX4 (protein, UniProt Q9Y2E6 1-619) MLLASAVVVWEWLNEHGRWRPYSPAVSHHIEAVVRAGPRAGGSVVLGQVDSRLAPYIIDLQSMNQFRQDTGTLRPVRRNYYDPSSAPGKGVVWEWENDNGSWTPYDMEVGITIQHAYEKQHPWIDLTSIGFSYVIDFNTMGQINRQTQRQRRVRRRLDLIYPMVTGTLPKAQSWPVSPGPATSPPMSPCSCPQCVLVMSVKAAVVNGSTGPLQLPVTRKNMPPPGVVKLPPLPGSGAKPLDSTGTIRGPLKTAPSQVIRRQASSMPTGTTMGSPASPPGPNSKTGRVALATLNRTNLQRLAIAQSRVLIASGVPTVPVKNLNGSSPVNPALAGITGILMSAAGLPVCLTRPPKLVLHPPPVSKSEIKSIPGVSNTSRKTTKKQAKKGKTPEEVLKKYLQKVRHPPDEDCTICMERLTAPSGYKGPQPTVKPDLVGKLSRCGHVYHIYCLVAMYNNGNKDGSLQCPTCKTIYGVKTGTQPPGKMEYHLIPHSLPGHPDCKTIRIIYSIPPGIQGPEHPNPGKSFSARGFPRHCYLPDSEKGRKVLKLLLVAWDRRLIFAIGTSSTTGESDTVIWNEVHHKTEFGSNLTGHGYPDANYLDNVLAELAAQGISEDSTAQEKD
binds | TANK-binding kinase 1 (TBK1) (protein, UniProt Q9UHD2 1-729) MQSTSNHLWLLSDILGQGATANVFRGRHKKTGDLFAIKVFNNISFLRPVDVQMREFEVLKKLNHKNIVKLFAIEEETTTRHKVLIMEFCPCGSLYTVLEEPSNAYGLPESEFLIVLRDVVGGMNHLRENGIVHRDIKPGNIMRVIGEDGQSVYKLTDFGAARELEDDEQFVSLYGTEEYLHPDMYERAVLRKDHQKKYGATVDLWSIGVTFYHAATGSLPFRPFEGPRRNKEVMYKIITGKPSGAISGVQKAENGPIDWSGDMPVSCSLSRGLQVLLTPVLANILEADQEKCWGFDQFFAETSDILHRMVIHVFSLQQMTAHKIYIHSYNTATIFHELVYKQTKIISSNQELIYEGRRLVLEPGRLAQHFPKTTEENPIFVVSREPLNTIGLIYEKISLPKVHPRYDLDGDASMAKAITGVVCYACRIASTLLLYQELMRKGIRWLIELIKDDYNETVHKKTEVVITLDFCIRNIEKTVKVYEKLMKINLEAAELGEISDIHTKLLRLSSSQGTIETSLQDIDSRLSPGGSLADAWAHQEGTHPKDRNVEKLQVLLNCMTEIYYQFKKDKAERRLAYNEEQIHKFDKQKLYYHATKAMTHFTDECVKKYEAFLNKSEEWIRKMLHLRKQLLSLTNQCFDIEEEVSKYQEYTNELQETLPQKMFTASSGIKHTMTPIYPSSNTLVEMTLGMKKLKEEMEGVVKELAENNHILERFGSLTMDGGLRNVDCL
